Data source: PubChem BioAssay AID1224826 (NIAID, 2016)
Screen: 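Genes that change LPS-induced Tnf promoter activity in mouse macrophages when knocked down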 (primary screen). System: RAW264.7 G9 macrophages from mouse bearing reporters for p65 (GFP) and the Tnf promoter (mCherry). Knock-down reagent: siRNA pool against mouse genes, 100 nM. Time to read-out: 16 h of LPS stimulation, after 2 days of siRNA transfection. Conditions: bacterial lipopolysaccharide (Salmonella minnesota R595), 10 ng/ml. Detection: 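Nuclear mCherry signal of the Tnf promoter reporter measured by imaging after background removal, scaled to each plate median and turned into robust z-scores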. Reading the numbers: Tnf reporter robust z-score: higher = stronger Tnf promoter reporter signal after LPS. Hit rule: 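a well counts as active at a score of -1.3 or below (Tlr4 knock-down control median) or above 3 (raised signal); controls and wells holding fewer than 50 cells are excluded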. Meaning of the calls: active = Tnf reporter clearly lowered or raised; inactive = no clear change in Tnf reporter.
Here is an unselected part of about 17,000 reagents. About 1,110 of all reagents (6.6%) were called active. 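Active means lowered or raised reporter signal; replicate intensities are raw and not normalised per plate.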 Not all columns of the deposit are shown.

Tmem100 (GeneID 67888) scored Tnf reporter robust z-score 2.89; fewer than 50 cells in well enough cells in well; inactive.
Knock-down of Pick1 (GeneID 18693) resulted in: Tnf reporter robust z-score 0.06; fewer than 50 cells in well enough cells in well; inactive.
Silencing of H2bc4 (GeneID 68024) came out at: Tnf reporter robust z-score -0.78; fewer than 50 cells in well enough cells in well; inactive.
With knock-down of Dnaaf6 (GeneID 331537) the results were Tnf reporter robust z-score 0.98; fewer than 50 cells in well enough cells in well; inactive.
Silencing of Nfatc4 (GeneID 73181) gave: Tnf reporter robust z-score -0.02; fewer than 50 cells in well enough cells in well; inactive.
Trappc12 (GeneID 217449) scored Tnf reporter robust z-score -0.2; fewer than 50 cells in well enough cells in well; inactive.
Vmn1r53 (GeneID 113853) showed Tnf reporter robust z-score -0.83; fewer than 50 cells in well enough cells in well; inactive.
After knock-down of Aoah (GeneID 27052) the results were Tnf reporter robust z-score -1.35; fewer than 50 cells in well enough cells in well; active.
After knock-down of Tmem106a (GeneID 217203), the screen gave Tnf reporter robust z-score -0.61; fewer than 50 cells in well enough cells in well; inactive.
For Galt (GeneID 14430) the deposit lists Tnf reporter robust z-score -0.37; fewer than 50 cells in well enough cells in well; inactive.
Knock-down of Or10aa1 (GeneID 258712) resulted in: Tnf reporter robust z-score 1.18; fewer than 50 cells in well enough cells in well; inactive.
Plxna3 (GeneID 18846) showed Tnf reporter robust z-score -0.09; fewer than 50 cells in well enough cells in well; inactive.

Records listed above marked active (1):
Aoah (GeneID 27052) → Tnf reporter robust z-score = -1.35; fewer than 50 cells in well = enough cells in well; Outcome = active
